# Measured values taken from publication PMC4949242, “Conjugative DNA Transfer Is Enhanced by Plasmid R1 Partitioning Proteins”.
# Target: T1, ParR (Escherichia coli plasmid R1) (UniProt P11906)
# T1 sequence (looked up, limits assumed): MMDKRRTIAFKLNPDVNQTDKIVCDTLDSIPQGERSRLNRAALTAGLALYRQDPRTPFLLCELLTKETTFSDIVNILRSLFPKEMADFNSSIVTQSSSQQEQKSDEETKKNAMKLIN
# Assay: EMSA
# Details: EMSA: 10 mM Tris-HCl pH 7.5, 50 mM NaCl, 0.005% NP-40, 1 mM DTT, 1 mM EDTA, 25 C, 20 min (DNA 20 nM in Methods, 4 nM in Fig 5 legend), recombinant protein, label: 3'-TAMRA on strand 1
Sequence,"binding result (shift required 40-fold molar excess of protein, nonspecific)",binding result (shift at amounts equivalent to oriT (40-fold excess))
ACCAAAAGCACCACACCCCACGCAAAAACAAG (double strand) [dsoriT],binds more weakly,–
CGAACGAGCAGTTGTTTCAGCG (double strand) [dsrnd],–,binds more weakly

# The exact form of at least one protein or probe is not confirmed. Weaker means in comparison with the reference protein, sequence or condition of that experiment. Tags and fusion partners may be left off the protein sequences shown.
